One molecule from patent US20190194322A1 can be followed below.

These are yes or no findings as the source states them, for the method shown. Binding seen in cells or lysates may run through a third protein. Some results given as binding are weak or reduced against the parent protein; the word gives no strength. Where a sequence is shown, tags or fusion partners need not be part of it.

In test [1] the target is T1, human VISTA, endogenous, membrane bound (PBMCs, anti-CD3 activated T cells) (human (homo sapiens)), Q9H7M9. Description: co-immunoprecipitation (FIG. 2 legend). Particulars: remark: other sources report otherwise.
The target of test [2] is T1, human VISTA, endogenous, membrane bound …. Kind of test: pull-down from PBMC lysate on streptavidin beads, immunoblot with anti-human VISTA (FIG. 2). To be noted: remark: other sources report otherwise. A general note: In western blotting, separated proteins are transferred to a membrane and probed.

B1: VSIG3 His-fusion, Q5DX21 23-241 (ligand, human, UniProt Q5DX21 23-241, looked up, not shown: small tags and cut ends)
chain: LEVSESPGSIQVARGQPAVLPCTFTTSAALINLNVIWMVTPLSNANQPEQVILYQGGQMFDGAPRFHGRVGFTGTMPATNVSIFINNTQLSDTGTYQCLVNNLPDIGGRNIGVTGLTVLVPPSAPHCQIQGSQDIGSDVILLCSSEEGIPRPTYLWEKLDNTLKLPPTATQDQVQGTVTIRNISALSSGLYQCVASNAIGTSTCLLDLQVISPQPRNIG
modifications: here or on the partner: biotinylated (in the co-immunoprecipitation of FIG. 2)
Regarding B1, the binding result in test [1] and in test [2] was “binds” throughout.
